Laboratory results reported in PMC12906810.
The exact form of at least one protein or probe is not confirmed. Negatives hold for the conditions tested. At least one verdict was read from the data and is not stated in words by the source.

Chains of the proteins cited; added tags and fusions are not shown.
UniProt A0A804N6V3, entry or part of it: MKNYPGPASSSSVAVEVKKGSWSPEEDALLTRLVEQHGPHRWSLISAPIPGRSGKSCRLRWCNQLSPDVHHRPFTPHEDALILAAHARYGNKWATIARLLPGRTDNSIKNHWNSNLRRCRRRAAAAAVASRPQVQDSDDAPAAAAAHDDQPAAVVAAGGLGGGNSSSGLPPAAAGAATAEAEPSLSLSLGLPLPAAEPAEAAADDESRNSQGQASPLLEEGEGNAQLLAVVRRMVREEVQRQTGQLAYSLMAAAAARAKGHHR

Target: ZmMYB127 (Zea mays (inbred B73)) (UniProt A0A804N6V3)
Test: competition with a labelled probe
Conditions: EMSA with LightShift Chemiluminescent EMSA kit protocol, 25 °C, 30 min, native PAGE, salt and pH not stated, recombinant protein, protein details: GST (N-terminal, pGEX-6T), label: none (competitor)

“CACGCGCCGCCATTTAAAAAACGAATGAGTCCATGG (double strand) [Bt1 promoter mutant]”: no binding (unlabeled mutant vs biotin Bt1 probe).

“GAGAATGAAAGCGAAAAAAAACTCACGGACTCTAAG (double strand) [Ae1 promoter mutant]”: no binding (unlabeled mutant vs biotin Ae1 probe).

“GTTGAAATTGATTGAAAAAAACAAATTTTGTTAA (double strand) [z1D2 promoter mutant]”: no binding (unlabeled mutant vs biotin z1D2 probe).

“TCTACTAAGCTTGTTAAAAAACGAGAAGAATATTAG (double strand) [z1C1 promoter mutant]”: no binding (unlabeled mutant vs biotin z1C1 probe).
